According to patent US20230416942A1 (YALE UNIVERSITY, published 2023):
These are yes or no findings as the source states them, for the method shown. Some results given as binding are weak or reduced against the parent protein; the word gives no strength.

Amino acid sequences for entries named in this document (tags omitted). Residues count along the entry.
UniProt P07766, residues 23-126: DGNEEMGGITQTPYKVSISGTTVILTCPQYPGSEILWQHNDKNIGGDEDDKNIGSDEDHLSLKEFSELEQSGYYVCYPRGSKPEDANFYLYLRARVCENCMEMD
UniProt Q02223, residues 1-54: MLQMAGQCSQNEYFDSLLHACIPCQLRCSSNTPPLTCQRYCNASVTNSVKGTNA

T1: PROCR (human, UniProt Q9UNN8 18-210)
T1 construct: Recombinant human protein in ELISA and BLI
T1 sequence (looked up): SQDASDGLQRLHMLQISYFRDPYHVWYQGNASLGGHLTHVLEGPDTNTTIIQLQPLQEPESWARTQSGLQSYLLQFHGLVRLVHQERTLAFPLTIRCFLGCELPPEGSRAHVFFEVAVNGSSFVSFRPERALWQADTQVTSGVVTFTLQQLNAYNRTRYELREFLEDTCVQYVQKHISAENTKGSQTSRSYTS

T2: CD302 (human, UniProt Q8IX05 23-168, limits assumed)
T2 construct: Recombinant human protein in ELISA
T2 sequence (looked up): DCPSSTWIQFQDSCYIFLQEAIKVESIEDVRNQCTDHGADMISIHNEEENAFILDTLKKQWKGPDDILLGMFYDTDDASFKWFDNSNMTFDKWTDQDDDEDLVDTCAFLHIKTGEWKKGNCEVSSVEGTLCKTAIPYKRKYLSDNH

B1: CD3E_Nb2.73 (Fc fusion)
chain: QVQLQESGGGLVQAGGSLRLSCAASGNISDITVMGWYRQAPGKEREFVAGINYGGSTNYADSVKGRFTISRDNAKNTVYLQMNSLKPEDTAVYYCAARYRYRYSAREFHDYWGQGTQVTVSS
notes: Nanobody expressed and tested as Fc fusion (human IgG1); not shown: human IgG1 Fc (vector pCER243)
B2: CD3E_Nb2.74 (Fc fusion)
chain: QVQLQESGGGLVQAGGSLRLSCAASGTIFYASVMGWYRQAPGKEREFVAGITPGGSTNYADSVKGRFTISRDNAKNTVYLQMNSLKPEDTAVYYCAVYYRYSEGRIGGHAYWGQGTQVTVSS
notes: as for B1
B3: CD3E_Nb2.76 (Fc fusion)
chain: QVQLQESGGGLVQAGGSLRLSCAASGNIFGNVVMGWYRQAPGKEREFVAGINNGGSTNYADSVKGRFTISRDNAKNTVYLQMNSLKPEDTAVYYCAVYYYYLTYHLYWGQGTQVTVSS
notes: as for B1
B4: CD3E_Nb2.77 (Fc fusion)
chain: QVQLQESGGGLVQAGGSLRLSCAASGSISPVAVMGWYRQAPGKEREFVAAINYGANTYYADSVKGRFTISRDNAKNTVYLQMNSLKPEDTAVYYCAAATYAPYQRSGKLVYWGQGTQVTVSS
notes: as for B1
B5: CD3E_Nb2.79 (Fc fusion)
chain: QVQLQESGGGLVQAGGSLRLSCAASGTISPWRVMGWYRQAPGKEREFVAGITPGTTTYYADSVKGRFTISRDNAKNTVYLQMNSLKPEDTAVYYCAVSAGASTPARYRLVYWGQGTQVTVSS
notes: as for B1
B6: CD3E_Nb2.80 (Fc fusion)
chain: QVQLQESGGGLVQAGGSLRLSCAASGNISRRYVMGWYRQAPGKEREFVAGISGGSSTYYADSVKGRFTISRDNAKNTVYLQMNSLKPEDTAVYYCAVLISGNTPNAISHYYWGQGTQVTVSS
notes: as for B1
B7: PROCR_Nb83 (Fc fusion)
chain: QVQLQESGGGLVQAGGSLRLSCAASGNISPTRFMGWYRQAPGKEREFVAAIDLGTTTNYADSVKGRFTISRDNAKNTVYLQMNSLKPEDTAVYYCAADWNGPWSFWYWGQGTQVTVSS
notes: as for B1
B8: PROCR_Nb85 (Fc fusion)
chain: QVQLQESGGGLVQAGGSLRLSCAASGNISVLVYMGWYRQAPGKERELVAAITTGTSTYYADSVKGRFTISRDNAKNTVYLQMNSLKPEDTAVYYCAADYYGPWYHQYWGQGTQVTVSS
notes: as for B1
B9: PROCR_Nb87 (Fc fusion)
chain: QVQLQESGGGLVQAGGSLRLSCAASGSISSYPYMGWYRQAPGKERELVASIASGTNTYYADSVKGRFTISRDNAKNTVYLQMNSLKPEDTAVYYCAADSTGPWSHVYWGQGTQVTVSS
notes: as for B1
B10: PROCR_Nb88 (Fc fusion)
chain: QVQLQESGGGLVQAGGSLRLSCAASGTIFKLGYMGWYRQAPGKEREFVATITTGATTYYADSVKGRFTISRDNAKNTVYLQMNSLKPEDTAVYYCAADTYGPWAYSYWGQGTQVTVSS
notes: as for B1
B11: PROCR_Nb89 (Fc fusion)
chain: QVQLQESGGGLVQAGGSLRLSCAASGTIFRDDNMGWYRQAPGKEREFVAAIGYGSTTNYADSVKGRFTISRDNAKNTVYLQMNSLKPEDTAVYYCAVRNTYWNLLQYWGQGTQVTVSS
notes: as for B1
B12: PROCR_Nb90 (Fc fusion)
chain: QVQLQESGGGLVQAGGSLRLSCAASGTISGGYNMGWYRQAPGKEREFVATIGDGSSTYYADSVKGRFTISRDNAKNTVYLQMNSLKPEDTAVYYCAAFNSAQYWYESPFRYWGQGTQVTVSS
notes: as for B1
B13: CD302_Nb26 (Fc fusion)
chain: QVQLQESGGGLVQAGGSLRLSCAASGNISFIGAMGWYRQAPGKEREFVAGINVGTNTYYADSVKGRFTISRDNAKNTVYLQMNSLKPEDTAVYYCAAYVFVSRIDLRYLVYWGQGTQVTVSS
notes: as for B1
B14: CD302_Nb28 (Fc fusion)
chain: QVQLQESGGGLVQAGGSLRLSCAASGSISGVSGMGWYRQAPGKEREFVAGITTGTSTYYADSVKGRFTISRDNAKNTVYLQMNSLKPEDTAVYYCAAYANYVPSSRLYLRYWGQGTQVTVSS
notes: as for B1
B15: CD302_Nb30 (Fc fusion)
chain: QVQLQESGGGLVQAGGSLRLSCAASGSISLATGMGWYRQAPGKEREFVAGISVGTSTYYADSVKGRFTISRDNAKNTVYLQMNSLKPEDTAVYYCAAIAWHPSGARSYLRYWGQGTQVTVSS
notes: as for B1
B16: CD302_Nb31 (Fc fusion)
chain: QVQLQESGGGLVQAGGSLRLSCAASGTIFKSAGMGWYRQAPGKEREFVAGIAPGAITYYADSVKGRFTISRDNAKNTVYLQMNSLKPEDTAVYYCAALVADGRPYRYWGQGTQVTVSS
notes: as for B1
B17: CD302_Nb32 (Fc fusion)
chain: QVQLQESGGGLVQAGGSLRLSCAASGTIFPDSSMGWYRQAPGKEREFVAGITTGANTYYADSVKGRFTISRDNAKNTVYLQMNSLKPEDTAVYYCAAYHVDRAVFRYWGQGTQVTVSS
notes: as for B1
B18: CD302_Nb33 (Fc fusion)
chain: QVQLQESGGGLVQAGGSLRLSCAASGTISIIFAMGWYRQAPGKEREFVAGIGRGTTTYYADSVKGRFTISRDNAKNTVYLQMNSLKPEDTAVYYCAAHVFYDNVVQRHAYWGQGTQVTVSS
notes: as for B1
B19: CD302_Nb35 (Fc fusion)
chain: QVQLQESGGGLVQAGGSLRLSCAASGTISRVFVMGWYRQAPGKERELVAGIGGGTSTYYADSVKGRFTISRDNAKNTVYLQMNSLKPEDTAVYYCAAILSDRVLFRYWGQGTQVTVSS
notes: as for B1
B20: TNFRSF17_Nb2.18 (Fc fusion)
chain: QVQLQESGGGLVQAGGSLRLSCAASGNIFRGWYMGWYRQAPGKEREFVATIASGGSTYYADSVKGRFTISRDNAKNTVYLQMNSLKPEDTAVYYCAVWDWEPGDYAYWGQGTQVTVSS
notes: Nanobody expressed as an Fc fusion protein (fused with human IgG1) in Expi293 cells; not shown: human IgG1 Fc; nanobodies expressed as Fc fusion from vector pCER243
B21: TNFRSF17_Nb2.19 (Fc fusion)
chain: QVQLQESGGGLVQAGGSLRLSCAASGTISHPTYMGWYRQAPGKEREFVAGISDGTNTYYADSVKGRFTISRDNAKNTVYLQMNSLKPEDTAVYYCAAITSWDYGYGYWGQGTQVTVSS
notes: as for B20
B22: TNFRSF17_Nb2.20 (Fc fusion)
chain: QVQLQESGGGLVQAGGSLRLSCAASGTIFSDYMGWYRQAPGKEREFVATIAVGSITYYADSVKGRFTISRDNAKNTVYLQMNSLKPEDTAVYYCAVWDASWADYAYWGQGTQVTVSS
notes: as for B20
B23: TNFRSF17_Nb2.21 (Fc fusion)
chain: QVQLQESGGGLVQAGGSLRLSCAASGTIFQYDYMGWYRQAPGKEREFVAAIAYGGNTNYADSVKGRFTISRDNAKNTVYLQMNSLKPEDTAVYYCAAWSWRRSRAYWGQGTQVTVSS
notes: as for B20
B24: TNFRSF17_Nb2.23 (Fc fusion)
chain: QVQLQESGGGLVQAGGSLRLSCAASGYISRYDYMGWYRQAPGKERELVAAINSGASTYYADSVKGRFTISRDNAKNTVYLQMNSLKPEDTAVYYCAVRSWGLDDYAYWGQGTQVTVSS
notes: as for B20

Biological target: T3, CD3E (human, UniProt P07766 23-126)
T3 construct: Recombinant human protein in ELISA
Test: REAP, yeast-displayed human antigen library

Binder | binding
B1 | binds
B2 | binds
B3 | binds
B4 | binds
B5 | binds
B6 | binds

Biological target: T1, PROCR
Test: REAP, yeast-displayed human antigen library

Binder | binding
B7 | binds
B8 | binds
B9 | binds
B10 | binds
B11 | binds
B12 | binds

Biological target: T2, CD302
Test: REAP, yeast-displayed human antigen library

Binder | binding
B13 | binds
B14 | binds
B15 | binds
B16 | binds
B17 | binds
B18 | binds
B19 | binds

Biological target: TNFRSF17 (yeast-displayed human antigen, REAP library) (human) (UniProt Q02223)
Test: REAP, nanobody-Fc on yeast-displayed human antigen library (REAP Binding to Targets)

Binder | binding
B20 | binds
B21 | binds
B22 | binds
B23 | binds
B24 | binds
